# Read-outs that look alike come from different tables or passages of the source.
# Assays:
# clinical = details: human, in vivo, 50 mg
# [1] = cited from earlier work; for decrease in AUC with food / decrease in Cmax with food: concomitant intake of food / taken with a meal
# [2] = cited from earlier work
# [3] = 100 mg dose, cited from earlier work
# [4] = reported basic pKa; cited from earlier work
# [5] = Compartmental fit of IV data in PKPlus (pharmacokinetic parameters of the absorption model); details: human, in vivo, 50 mg
smiles,measurement,setting,value
"Nc1nc2ccc(OC(F)(F)F)cc2s1 [riluzole, 2-Amino-6-(trifluoromethoxy)benzothiazole]","First Pass Extraction, calculated",CL/blood to plasma ratio/liver blood flow,"to ~42%, closely matching assumed"
same,First Pass Extraction,assumed value based on bioavailability of 60%,40%
same,clearance,clinical,10.7 mL/min/kg
same,decrease in AUC with food,[1],around 20%
same,decrease in Cmax with food,[1],approximately 45%
same,decrease in AUC with food,[1]; listed as Riluzole,20%
same,decrease in Cmax with food,[1]; listed as Riluzole,45%
same,dose proportionality of PK,[1]; dose range of 25 to 100 mg every 12 hours,dose proportional
same,dose metabolized,[1]; following oral administration,at least 88%
same,increase in AUC vs normal hepatic function,[1]; mild hepatic impairment,1.7 fold
same,increase in AUC vs normal hepatic function,[1]; moderate hepatic impairment,3 fold
same,Albumin covariate on CL/F,[2]; population estimate (THETA),−1.93
same,Bilirubin covariate on CL/F,[2]; population estimate (THETA),0.888
same,Smoking covariate on CL/F,[2]; population estimate (THETA),0.363
same,higher clearance compared to non-smokers,[2]; smokers,36%
same,CL/F Inter-occasion variability,[2]; variability parameter (ETA),0.056
same,CL/F Inter-subject variability,[2]; variability parameter (ETA),0.164
same,Covariance between CL/F and V/F,[2]; variability parameter (ETA),0.89
same,AUC (0-inf),[3]; Fasted (observed),1269 ng·h/mL
same,Cmax,[3]; Fasted (observed),387 ng/mL
same,Tmax,[3]; Fasted (observed),0.8 h
same,AUC (0-inf),[3]; Fed (observed),1047 ng·h/mL
same,Cmax,[3]; Fed (observed),216 ng/mL
same,Tmax,[3]; Fed (observed),2 h
same,pKa,[4],3.8
same,K12,[5],4.56 h⁻¹
same,K13,[5],0.56 h⁻¹
same,K21,[5],1.9 h⁻¹
same,K31,[5],0.14 h⁻¹

# Reference: patent US11439626B2 (Icahn School of Medicine at Mount Sinai, priority 2019, dated 2022)
